{"sequences": {"note": "Chains of the proteins cited; added tags and fusions are not shown. Lines headed by an entry give the natural chain unless they say otherwise; changes in a name come on top.", "UniProt P43406": "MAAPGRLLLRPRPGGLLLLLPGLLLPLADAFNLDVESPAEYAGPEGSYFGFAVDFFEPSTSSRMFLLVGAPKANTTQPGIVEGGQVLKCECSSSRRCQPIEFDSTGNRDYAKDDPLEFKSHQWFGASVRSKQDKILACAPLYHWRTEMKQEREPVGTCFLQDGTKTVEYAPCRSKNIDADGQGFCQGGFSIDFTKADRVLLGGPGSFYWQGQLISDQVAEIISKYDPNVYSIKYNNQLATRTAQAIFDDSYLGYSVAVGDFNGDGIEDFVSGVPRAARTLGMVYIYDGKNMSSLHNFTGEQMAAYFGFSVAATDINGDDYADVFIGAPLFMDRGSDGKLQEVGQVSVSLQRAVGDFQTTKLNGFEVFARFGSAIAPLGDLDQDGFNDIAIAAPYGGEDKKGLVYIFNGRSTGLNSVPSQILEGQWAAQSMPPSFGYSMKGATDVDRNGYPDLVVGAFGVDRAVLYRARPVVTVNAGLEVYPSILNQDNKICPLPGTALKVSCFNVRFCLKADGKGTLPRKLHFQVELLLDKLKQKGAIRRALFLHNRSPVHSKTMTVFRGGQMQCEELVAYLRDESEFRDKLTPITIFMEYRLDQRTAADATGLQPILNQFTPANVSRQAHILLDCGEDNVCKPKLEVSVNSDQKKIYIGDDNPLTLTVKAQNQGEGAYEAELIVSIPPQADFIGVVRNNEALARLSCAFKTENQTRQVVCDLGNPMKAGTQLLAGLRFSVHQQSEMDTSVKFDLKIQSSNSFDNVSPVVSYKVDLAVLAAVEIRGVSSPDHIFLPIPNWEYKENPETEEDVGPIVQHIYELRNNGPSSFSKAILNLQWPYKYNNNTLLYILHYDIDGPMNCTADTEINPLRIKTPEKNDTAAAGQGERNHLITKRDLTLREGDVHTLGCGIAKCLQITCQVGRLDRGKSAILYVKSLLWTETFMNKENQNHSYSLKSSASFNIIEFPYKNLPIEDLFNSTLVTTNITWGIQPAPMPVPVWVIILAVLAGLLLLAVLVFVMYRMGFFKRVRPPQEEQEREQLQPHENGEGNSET"}, "source": "patent US20230220048A1", "binders": {"B1": {"name": "wtMFG-E8 (human wild-type MFG-E8; SEQ ID NO: 1) (ligand)", "chain": "LDICSKNPCHNGGLCEEISQEVRGDVFPSYTCTCLKGYAGNHCETKCVEPLGLENGNIANSQIAASSVRVTFLGLQHWVPELARLNRAGMVNAWTPSSNDDNPWIQVNLLRRMWVTGVVTQGASRLASHEYLKAFKVAYSLNGHEFDFIHDVNKKHKEFVGNWNKNAVHVNLFETPVEAQYVRLYPTSCHTACTLRFELLGCELNGCANPLGLKNNSIPDKQITASSSYKTWGLHLFSWNPSYARLDKQGNFNAWVAGSYGNDQWLQVDLGSSKEVTGIITQGARNFGSVQFVASYKVAYSNDSANWTEYQDPRTGSSKIFPGNWDNHSHKKNLFETPILARYVRILPVAWHNRIALRLELLGC"}}, "key": {"[1]": {"target": "αvβ3 integrin on BW5147.G.1.4 lymphoma cells (ATCC-TIB-48) (UniProt P43406)", "assay": "adhesion of BW5147.G.1.4 cells to plate-immobilised protein"}, "[2]": {"target": "αvβ3 integrin on BW5147.G.1.4 lymphoma cells (ATCC-TIB-48) (UniProt P43406)", "assay": "adhesion of BW5147.G.1.4 cells to plate-immobilised protein (legend of FIG. 5)"}}, "note": "These are yes or no findings as the source states them, for the method shown. Some entries that bind do so weakly or less than the wild type."}
{"binder": "B1", "values": [{"measurement": "binding", "setting": "[1]", "result": "binds"}, {"measurement": "binding", "setting": "[2]", "result": "binds"}]}
